Experimental data published in PubChem BioAssay AID1671190 (National Center for Advancing Translational Sciences (NCATS), 2021).
“And” between values parts separate entries of the source, which are not always exact repeats. Identical values can stand only once. Among all 580,000 compounds or so, about 6,100 (1.1%) were called active. Inconclusive means that the source gave no clear call. Such entries were picked first, then a sample of the others. The call rests on the fitted dose curve; in most records, active means well fitted inhibition curve with a large enough effect; inconclusive means small, poorly fitted or top-dose-only effect, or another doubt; inactive means no such curve, though single readings can be large or run the other way. Potencies beside an inconclusive call are fits to weak or partial responses and may not hold up.
On the % scale 0 is the no-effect control and ±100 the full control effect; potency means the concentration at half of the fitted maximal effect.

Sequences of proteins named here, by UniProt entry; tags and fusion partners are left off.
UniProt P18054, whole entry, looked up: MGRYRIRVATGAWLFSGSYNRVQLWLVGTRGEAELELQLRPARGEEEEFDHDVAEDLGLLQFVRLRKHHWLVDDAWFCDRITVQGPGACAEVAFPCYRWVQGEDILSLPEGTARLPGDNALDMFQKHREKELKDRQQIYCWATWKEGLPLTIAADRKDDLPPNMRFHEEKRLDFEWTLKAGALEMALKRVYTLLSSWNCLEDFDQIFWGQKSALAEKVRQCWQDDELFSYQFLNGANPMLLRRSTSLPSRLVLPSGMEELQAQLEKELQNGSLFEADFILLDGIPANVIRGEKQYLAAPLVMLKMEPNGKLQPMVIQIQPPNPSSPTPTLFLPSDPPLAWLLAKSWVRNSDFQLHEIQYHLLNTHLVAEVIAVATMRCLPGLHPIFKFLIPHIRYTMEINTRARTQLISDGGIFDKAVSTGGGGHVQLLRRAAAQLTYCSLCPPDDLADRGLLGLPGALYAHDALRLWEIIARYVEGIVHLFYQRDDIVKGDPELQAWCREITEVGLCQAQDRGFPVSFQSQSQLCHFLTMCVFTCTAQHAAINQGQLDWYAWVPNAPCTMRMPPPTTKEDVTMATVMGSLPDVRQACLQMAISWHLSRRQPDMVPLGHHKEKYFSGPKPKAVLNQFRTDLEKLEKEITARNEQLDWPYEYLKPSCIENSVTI

Each compound was assayed against Polyunsaturated fatty acid lipoxygenase ALOX12 (Homo sapiens) (UniProt P18054) (assay: Primary qHTS assay for inhibitors of human arachidonate 12S-lipoxygenase (ALOX12): Round 2). Details: purified 12hLO, xylenol orange hydroperoxide absorbance; activity change, negative = inhibition: at 108 µM (top of the series) unless noted.
How it was run: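 Purified human 12hLO (150 nM final) in 25 mM Hepes, 0.01% Triton X-100, pH 7.0 was preincubated 15 min at room temperature with compound. Then 40 uM arachidonic acid was added, 30 min. Hydroperoxide was read by Fe-XO absorbance ratio 573/405 nm.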
For CCN(C)C(=O)C1=COC2=NC(=O)N(Cc3cccc(Cl)c3)CCN12, the Potency was inconclusive: 89.1 µM [inhibitor, single point].
With Cc1nc(SCc2ccc(F)cc2Cl)sc1CC(N)=O the Potency was inconclusive: 112 µM [inhibitor, single point].
In the case of CC1CN(Cc2c(O)ccc3c2oc(=O)c2ccccc23)CC(C)O1 (configuration not stated), the Potency is reported as active: 5.62 µM.
In the case of COc1ccc(CN2CCC3(CC2)CC(O)CCO3)cc1 (configuration not stated), the Potency is reported as “inactive”.
For COc1ccc(C(=O)Nc2nc3ccccc3s2)cc1OC, the Potency was “inactive”.
For COc1ccc([C@@H]2C[C@@H](c3ccccc3)Oc3cc(C)cc(C)c32)cc1, the Potency was inconclusive: 11.2 µM [inhibitor, full curve].
For CN1CCN(C(C(=O)O)c2c[nH]c3cc(Br)ccc23)CC1 (configuration not stated), the Potency was inconclusive: 100 µM [inhibitor, single point].
In the case of O=C(O)CCSCc1ccc(C(=O)O)o1, the Potency is reported as inconclusive: 6.31 µM [inhibitor, full curve, poor fit].
For CCN(CC)c1cc2c(c3c1ccn3C)C1CCC2C1 (configuration not stated), the Potency was inconclusive: 50.1 µM [inhibitor, single point].
In the case of CCCCOc1ccccc1NC(=O)Cn1c(-c2cncs2)nc2ccccc21, the Potency is reported as “inactive”.
In the case of CC(=O)Nc1ccc(NC(=O)C(C)OC(=O)C2CCCC2)cc1 (configuration not stated), the Potency is reported as inconclusive: 63.1 µM [inhibitor, partial curve, poor fit].
For CN1c2ccc(Cl)cc2C(=O)NC1C1CC=CCC1 (configuration not stated), the Potency was inconclusive: 89.1 µM [inhibitor, single point].
For O=C(CN1CCc2ccccc2C1)N1N=C(c2ccco2)CC1c1ccco1 (configuration not stated), the Potency was inconclusive: 44.7 µM [inhibitor, partial curve, poor fit].
For Cc1cc(C(=O)Nc2ccc(CC(=O)O)cc2)c(C)o1, the Potency was “inactive”.
CC=C(C)C(=O)O[C@H]1C(C)=C[C@]23C(=O)[C@@H](C=C(CO)[C@@H](O)[C@]12O)[C@H]1[C@@H](C[C@H]3C)C1(C)C was tested, and the Potency was inconclusive: 141 µM [inhibitor, single point].
With O=C(Nc1ccc(Cl)cc1)Nc1ccc(Cl)c(Cl)c1 the Potency was “inactive”.
In the case of Cc1cccc(CSC(Nc2ccc(F)cc2)=C(C#N)C#N)c1, the Potency is reported as “inactive”.
CC(=O)N1CC2(CCCN2Cc2ccc(Cl)cc2)Cc2ccccc21 (configuration not stated) was tested, and the Potency was inconclusive: 44.7 µM [inhibitor, partial curve, poor fit].
For O=C(Nc1ccc(S(=O)(=O)Nc2cnc3ccccc3n2)cc1)c1cccc(OC(F)F)c1, the Potency was inconclusive: 44.7 µM [inhibitor, partial curve, poor fit].
In the case of Cc1cccc(C(=O)NC(Nc2cc(C)ccc2C)C(Cl)(Cl)Cl)c1 (configuration not stated), the Potency is reported as inconclusive: 56.2 µM [inhibitor, partial curve, poor fit].
For CC(=O)Oc1ccc(N2C(=O)C3C4C=CC(CO)(O4)C3C2=O)cc1 (configuration not stated), the Potency was “inactive”.
In the case of COC(=O)C1=C(C)NC(=O)/C1=C\c1cc(C)n(-c2cccc(C)c2)c1C, the Potency is reported as inconclusive: 3.55 µM [inhibitor, full curve, poor fit].
In the case of Cc1ccc(-n2c3nc(=O)[nH]c(=O)c-3cc3ccc(Cl)cc32)c(C)c1, the Potency is reported as inconclusive: 25.1 µM [inhibitor, partial curve, poor fit].
In the case of COc1ccc(Nc2nc3c(S(=O)(=O)c4ccccc4)nnn3c3ccc(Cl)cc23)cc1OC, the Potency is reported as inconclusive: 158 µM [inhibitor, partial curve, poor fit].
With Cc1ccc(NC(=O)CN2C(=O)NC3(CCC(C)CC3)C2=O)cc1Cl (configuration not stated) the Potency was inconclusive: 70.8 µM [inhibitor, partial curve, poor fit].
For COc1ccc2[nH]c(=O)c3c(c2c1)OC(C)(C)C=C3, the Potency was inconclusive: 7.94 µM [inhibitor, full curve, poor fit].
With O=C(CCSCc1cnn(-c2ccccc2)c1-n1cccc1)NCc1ccc(Cl)cc1 the Potency was inconclusive: 56.2 µM [inhibitor, partial curve, poor fit].
For CN(C)c1ccc(C(=O)Nc2nc3c(s2)CCCC3)cc1, the Potency was inconclusive: 50.1 µM [inhibitor, partial curve, poor fit].
In the case of CC(C)c1ccc2c(c1)C(N1CCN(C)CC1)Cc1cccnc1S2 (configuration not stated), the Potency is reported as inconclusive: 39.8 µM [inhibitor, partial curve, poor fit].
COc1cc(OC)cc(C(=O)Oc2ccccc2Cl)c1 was tested, and the Potency was inconclusive: 100 µM [inhibitor, single point].
CC(c1cccs1)N(C)S(=O)(=O)c1cc(C(=O)O)cs1 (configuration not stated) was tested, and the Potency was inconclusive: 22.4 µM [inhibitor, partial curve, poor fit].
Cc1nnsc1C(=O)N/N=C/c1c(F)cccc1Cl was tested, and the Potency was “inactive”.
With CCCCCNC(=O)c1cccc(S(=O)(=O)N2CC3(C)CC2CC(C)(C)C3)c1 (configuration not stated) the Potency was “inactive”.
Cc1ccc(C)c(-c2csc(-c3nc(-c4ccccc4)cs3)n2)c1 was tested, and the Potency was inconclusive: 112 µM [inhibitor, single point].
With Cc1ccc(C(=O)c2cn(Cc3cccc(F)c3)c3nc(C)ccc3c2=O)cc1 the activity change, negative = inhibition was inconclusive: -30.2% [inhibitor].
Cc1cc(/C=C2\SC(=S)NC2=O)c(C)n1-c1ccccc1 was tested, and the Potency was inconclusive: 28.2 µM [inhibitor, partial curve, poor fit].
O=C(O)c1ccc(N2CC3CC(C2)c2cccc(=O)n2C3)c(NC(=S)Nc2ccc(Cl)cc2Cl)c1 (configuration not stated) was tested, and the Potency was inconclusive: 44.7 µM [inhibitor, partial curve].
In the case of O=C(OCC(=O)N1CCC(Cc2ccccc2)CC1)c1cc(=O)c2ccccc2o1, the Potency is reported as inconclusive: 44.7 µM [inhibitor, partial curve, poor fit].
In the case of O=C(Nc1cccc(F)c1)c1cccn2c(-c3ccc(F)cc3)nnc12, the Potency is reported as inconclusive: 7.94 µM [inhibitor, full curve, poor fit].
For NC(=O)C1CN(CC(=O)Nc2ccccc2Sc2ccc(Cl)cc2)c2ccccc2O1 (configuration not stated), the Potency was inconclusive: 39.8 µM [inhibitor, partial curve, poor fit].
For CCN(CC)S(=O)(=O)c1ccc(C(=O)OCC(=O)Nc2sc3c(c2C#N)CCCCC3)cc1, the Potency was inconclusive: 50.1 µM [inhibitor, partial curve, poor fit].
In the case of C[C@@H]1CN([C@@H](C)CO)C(=O)CCCn2nncc2CO[C@H]1CN(C)C(=O)Nc1cccc(Oc2ccccn2)c1, the Potency is reported as inconclusive: 44.7 µM [inhibitor, partial curve, poor fit].
O=C(NC(=S)Nc1ccc(N2CCN(C(=O)c3ccccc3)CC2)cc1)c1cccs1 was tested, and the Potency was inconclusive: 17.8 µM [inhibitor, partial curve].
With CC(=O)N1CCN(c2oc(/C=C/c3ccccc3)nc2C#N)CC1 the Potency was inconclusive: 63.1 µM [inhibitor, partial curve, poor fit].
With CC1CCCN(C(=O)N2c3ccccc3Sc3ccccc32)C1 (configuration not stated) the Potency was “inactive”.
With O=C(O)c1ccccc1NS(=O)(=O)c1ccc(N/N=C/c2c(-c3ccccc3)[nH]c3ccccc23)c([N+](=O)[O-])c1 the Potency was active: 12.6 µM.
With Cc1ccc(C)c2c(=O)cc(CNC(CCn3cncn3)c3ccccc3)[nH]c12 (configuration not stated) the Potency was “inactive”.
CCOc1ccccc1CN1CCC2(CCN(C(=O)C(C)(C)C)CC2)Oc2ccccc21 was tested, and the Potency was inconclusive: 50.1 µM [inhibitor, partial curve].
For Cc1cccc(CNCc2ccco2)c1, the Potency was inconclusive: 1.58 µM [inhibitor, full curve, poor fit].
Cn1nc(-c2ccccc2)c(CO)c1Oc1cccc(C(F)(F)F)c1 was tested, and the Potency was “inactive”.
For COc1cc(CN2CCc3c([nH]c4ccccc34)C2)cc(OC)c1, the Potency was inconclusive: 0.501 µM [inhibitor, full curve, poor fit].
In the case of CC(C)(C)c1ccc(C(=O)Cn2nc(C(=O)O)c3ccccc3c2=O)cc1, the Potency is reported as inconclusive: 44.7 µM [inhibitor, partial curve, poor fit].
With O=C1c2ccccc2-c2nc3ccccc3n21 the Potency was inconclusive: 44.7 µM [inhibitor, partial curve, poor fit] and inconclusive: 25.1 µM [inhibitor, partial curve, poor fit].
With O=C(CC(=O)Nc1ccc(Cl)c(Cl)c1)N/N=C/c1ccc(O)cc1 the Potency was inconclusive: 79.4 µM [inhibitor, partial curve, poor fit].
For CN(C)c1ccc(C(CN)c2c[nH]c3ccccc23)cc1 (configuration not stated), the Potency was inconclusive: 70.8 µM [inhibitor, partial curve, poor fit].
In the case of COc1ccc(CCNC(=O)CSc2nc3ccccc3nc2Cc2ccc(Cl)cc2)cc1OC, the Potency is reported as inconclusive: 100 µM [inhibitor, partial curve, poor fit].
For CC(=O)C1=C(C)OC(N)=C(C#N)C1c1cccc2ccccc12 (configuration not stated), the Potency was inconclusive: 31.6 µM [inhibitor, partial curve, poor fit].
With COc1ccc(CN2CCNC(=O)C2CC(=O)NC2CCCCCC2)c(C)c1C (configuration not stated) the Potency was active: 31.6 µM.
In the case of CCOC(=O)c1c(S(=O)(=O)N2CCCCC2)nn(C)c1C, the Potency is reported as inconclusive: 25.1 µM [inhibitor, partial curve, poor fit].
In the case of COc1ccc(-c2ccc3c(c2)C(=O)N2CC[C@H](NC(=O)COCC(=O)O)[C@H]2C(=O)N3)cc1, the Potency is reported as inconclusive: 31.6 µM [inhibitor, partial curve, poor fit].
With O=C(NC(Cc1ccccc1)c1ccccc1)C1CCCO1 (configuration not stated) the Potency was “inactive”.
With Cc1ccc(NC(=O)c2cc(-c3ccco3)on2)cc1C the Potency was inconclusive: 44.7 µM [inhibitor, full curve, poor fit].
